According to publication PMC4014440:

T1: GFP::DLK-1S (short, inhibitory isoform of DLK-1 fused to GFP) (C. elegans) (UniProt O01700)
T1 sequence: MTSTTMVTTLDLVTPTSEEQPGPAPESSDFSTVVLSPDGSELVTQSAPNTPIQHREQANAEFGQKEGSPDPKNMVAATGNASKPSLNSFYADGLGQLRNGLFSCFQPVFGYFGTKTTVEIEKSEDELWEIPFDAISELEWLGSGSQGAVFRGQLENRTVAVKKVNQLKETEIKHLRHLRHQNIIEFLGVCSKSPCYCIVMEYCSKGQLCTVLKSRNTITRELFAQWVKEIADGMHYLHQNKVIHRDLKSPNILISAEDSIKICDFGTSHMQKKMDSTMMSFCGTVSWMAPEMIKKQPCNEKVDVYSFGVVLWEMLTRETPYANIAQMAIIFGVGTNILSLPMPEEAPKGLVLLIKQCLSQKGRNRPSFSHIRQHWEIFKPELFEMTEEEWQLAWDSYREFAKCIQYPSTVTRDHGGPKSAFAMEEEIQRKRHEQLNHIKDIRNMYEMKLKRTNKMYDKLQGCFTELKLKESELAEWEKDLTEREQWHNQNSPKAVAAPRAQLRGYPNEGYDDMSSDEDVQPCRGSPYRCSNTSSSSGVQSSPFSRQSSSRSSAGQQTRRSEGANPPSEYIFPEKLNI

B1: PPM-2::GFP (GFP fusion protein of wild-type PPM-2) (enzyme, UniProt P49596 1-356)
chain: MGQTLSEPVTKKESASCANENYLVGSSCMQGWRVDMEDAHTHLLSLPDDPKCAFFAVYDGHGGSKVSQYSGINLHKKVVAQKEFSEGNMKEAIEKGFLELDQQMRVDEETKDDVSGTTAVVVLIKEGDVYCGNAGDSRAVSSVVGEARPLSFDHKPSHETEARRIIAAGGWVEFNRVNGNLALSRALGDFAFKNCDTKPAEEQIVTAFPDVITDKLTPDHEFIVLACDGIWDVMTNQEVVDFVREKLAEKRDPQSICEELLTRCLAPDCQMGGLGCDNMTVVLVGLLHGQSPDTLFTKCARPAVFTGVNNEDGDQNQIQQDISRVINNFDGEQRVNAANQEEEEDDNEPAPANFQV
B2: PPM-2::GFP D59N (catalytically inactive PPM-2) (enzyme, UniProt P49596 1-356)
chain: B1 chain with D59N

Assays:
[1] = target: T1, GFP::DLK-1S (short, inhibitory isoform of DLK-1 fused to GFP) (C. elegans); assay: co-IP; GFP::DLK-1S precipitated from 10 mg of transgenic whole worm lysate (0.1% NP-40 lysis buffer); FLAG::DLK-1L K162R detected by anti-FLAG immunoblot; wild-type and ppm-2-/- mutant animals (binding unchanged)
[2] = target: FLAG epitope tagged DLK-1 K162R (FLAG::DLK-1L K162R) (C. elegans); assay: co-IP; FLAG::DLK-1 K162R immunoprecipitated from 5 mg of transgenic whole worm lysate (0.1% NP-40 lysis buffer); wild-type or mutant PPM-2::GFP detected by anti-GFP immunoblot; bands quantified with Image J as ratio of PPM-2::GFP in coIP to FLAG::DLK-1 K162R immunoprecipitated

| Molecule | binding [1] | binding [2] |
| --- | --- | --- |
| FLAG epitope tagged DLK-1 K162R (FLAG::DLK-1L K162R) (C. elegans) (enzyme) | binds |  |
| B1 |  | binds |
| B2 |  | binds |

Where a chain is given by its changes, count along the chain named. Names and notes keep the numbering of the source. Results are given in words; binding and its absence hold for the method and conditions named. Binding seen in cells or lysates may run through a third protein. A result given as binding can be weak or reduced; the word gives no strength. Where a sequence is shown, tags or fusion partners need not be part of it.
